Data taken from patent publication US20260152533A1, “COMBINATION INHIBITORS FOR TREATING FIBROSIS” (Memorial Sloan-Kettering Cancer Center, priority 2021, published 2026).
At least one compound was matched to its structure with a doubt left.

System: mammary fibroblasts (MFBs)
Test: Western blot of MFBs
Assay type: cell-based, mouse
Conditions: 20% Gln, TGFβ, 48 hours, Asp 20 mM (FIG. 8O)
Source text: NIH-3T3 cells were obtained from ATCC (CRL-1658); 293 T cells were obtained from ATCC (CRL-3216). PSCs were isolated from C57BL/6 mice by differential centrifugation as previously described^49 and their mesenchymal origin was validated by analyzing the expression of various mesenchymal and epithelial markers. MFBs were isolated from FVB/N mice by differential centrifugation as previously described^50. DB7 mouse breast cancer cells were obtained from Alexander Borowsky (University of California Davis Comprehensive Cancer Center, Sacramento, CA, USA) through an MTA to Ohio State University (OSU). KPC (Kras^LSL-G12D; Trp53^LSL-R172H; Pdx1-Cre) mouse PDAC cells were a gift from Scott Lowe (Memorial Sloan Kettering Cancer Center. (MSKCC)). […]
Lysates were generated by incubating cells or ground tumors in RIPA buffer (Millipore); […] of cleared lysate were analyzed by SDS-polyacrylamide gel electrophoresis (SDS-PAGE) as previously described^11. […] Quantification of band intensities of collagen I relative to […] or vinculin in tumor allograft experiments was performed with Image Lab software v6.0 (Bio-Rad).

N[C@@H](CC(=O)O)C(=O)O [aspartate]
GCN2 phosphorylation: rescued | collagen levels: rescued
